The list does not hold the whole screen: it gathers tests that were run many times, whatever their T/C, doses with no T/C, and many T/C values between a quarter and a half above the control. Other doses and runs of a compound stand elsewhere. T/C is the treated group as % of the vehicle group. Some doses have a count of surviving animals in place of a T/C: the source holds a T/C of zero for them, seemingly a mark for toxic or unscored doses. Some doses without a T/C left all or most animals alive at the check, yet need not have been tolerated: the source hardly ever lists a survival T/C far under the control, and the zero likely stands for such cases as well. Counts of survivors are from the toxicity check (mostly the fifth day) where no day follows; animals may have died later. Schedules are NCI's codes, read here as Q, the interval in days (D) or hours (H), X, the number of doses. For survival time, the PubChem record calls one and a half times the control and up active, and a quarter to a half above the control has no call in these data; cut-offs in other NCI protocols can differ. Some entries were tested several times; the results are listed from low to high.
Tested on: P388 leukemia ip, CD2F1 mice, survival T/C
Assay: NCI In Vivo Anticancer Drug Screen. Data for tumor model P388 Leukemia (intraperitoneal) in CD2F1 (CDF1) mice
Settings: T/C endpoint: median survival time, higher T/C = longer survival
[1] = dose: 100.0 mg/kg/injection, schedule: Q01DX005 (ip), vehicle: saline with Tween-80
[2] = dose: 100.0 mg/kg/injection, schedule: Q01DX009 (ip), vehicle: saline
[3] = dose: 200.0 mg/kg/injection, schedule: Q01DX005 (ip), vehicle: Klucel (hydroxypropylcellulose) (HPC)
[4] = dose: 200.0 mg/kg/injection, schedule: Q01DX009 (ip), vehicle: saline

## CCOC(=O)C(N)CSC(c1ccccc1)(c1ccccc1)c1ccccc1 (stereo not drawn)
dose: 3.13 mg/kg/injection, schedule: Q01DX009 (ip), vehicle: water
  survivor count: 6 of 6
dose: 6.25 mg/kg/injection, schedule: Q01DX009 (ip), vehicle: water
  survivor count: 6 of 6
dose: 25.0 mg/kg/injection, schedule: Q01DX009 (ip), vehicle: water
  T/C: 133 and 135 % of control
dose: 50.0 mg/kg/injection, schedule: Q01DX009 (ip), vehicle: water
  T/C: 146 % of control
dose: 50.0 mg/kg/injection, schedule: Q01DX009 (oral), vehicle: water
  T/C: 126 % of control
dose: 100.0 mg/kg/injection, schedule: Q01DX009 (oral), vehicle: water
  survivor count: 6 of 6
dose: 132.0 mg/kg/injection, schedule: Q04DX003 (ip), vehicle: saline
  T/C: 145 % of control
dose: 200.0 mg/kg/injection, schedule: Q01DX009 (ip), vehicle: water
  survivor count: 3 of 6
dose: 200.0 mg/kg/injection, schedule: Q01DX009 (oral), vehicle: water
  survivor count: 6 of 6
dose: 300.0 mg/kg/injection, schedule: Q04DX003 (ip), vehicle: saline
  survivor count: 5 of 6
dose: 400.0 mg/kg/injection, schedule: Q01DX009 (oral), vehicle: water
  survivor count: 6 of 6

## CC1(C)N=C(N)N=C(N)N1c1ccc(S(C)(=O)=O)cc1
[1]
  survivor count: 4 of 5
dose: 200.0 mg/kg/injection, schedule: Q01DX005 (ip), vehicle: saline with Tween-80
  survivor count: 0 of 5

## Cc1cccc2c1Oc1ccccc1C2NC(=O)c1ccccc1 (stereo not drawn)
[1]
  survivor count: 5 of 5

## N=C(N)S(=O)O
[2]
  T/C: 126 % of control

## O=[N+]([O-])c1cc(Br)c2cccc3c2c1CC3
[3]
  survivor count: 6 of 6

## COC(=O)Nc1nc2ccc(SC)cc2c(=O)[nH]1
dose: 200.0 mg/kg/injection, schedule: Q01DX009 (ip), vehicle: Klucel (hydroxypropylcellulose) (HPC)
  T/C: 144 and 149 % of control
dose: 400.0 mg/kg/injection, schedule: Q01DX009 (ip), vehicle: Klucel (hydroxypropylcellulose) (HPC)
  survivor count: 0 of 6

## COc1ccc(CC(C)NCC(O)c2ccc(O)c(NC=O)c2)cc1 (stereo not drawn)
dose: 50.0 mg/kg/injection, schedule: Q01DX009 (ip), vehicle: saline
  survivor count: 5 of 6
[2]
  survivor count: 5 of 6
dose: 100.0 mg/kg/injection, schedule: Q01DX009 (ip), vehicle: suspension in saline
  survivor count: 5 of 6
[4]
  survivor count: 5 of 6

## O=Cc1cccc(O)c1O
[4]
  survivor count: 4 of 6
dose: 400.0 mg/kg/injection, schedule: Q01DX009 (ip), vehicle: saline
  survivor count: 0 of 6
dose: 600.0 mg/kg/injection, schedule: Q01DX009 (ip), vehicle: saline
  survivor count: 0 of 6

## Cn1cc(CCc2cc[n+](CCC[n+]3ccc(CCc4cn(C)c5ccccc45)cc3)cc2)c2ccccc21
dose: 25.0 mg/kg/injection, schedule: Q01DX009 (ip), vehicle: Klucel (hydroxypropylcellulose) (HPC)
  survivor count: 4 of 6
dose: 50.0 mg/kg/injection, schedule: Q01DX009 (ip), vehicle: Klucel (hydroxypropylcellulose) (HPC)
  survivor count: 0 of 6

## COc1cccc2c1C(=O)c1c(O)c3c(c(O)c1C2=O)C[C@@](O)(C(C)=O)C[C@@H]3OC1CC(N(C)Cc2ccccc2)C(O)C(C)O1 (stereo partly drawn)
dose: 3.13 mg/kg/injection, schedule: Q04DX003 (ip), vehicle: distilled water + Tween-80
  T/C: 125 % of control
dose: 6.25 mg/kg/injection, schedule: Q04DX003 (ip), vehicle: distilled water + Tween-80
  T/C: 136 % of control
dose: 12.5 mg/kg/injection, schedule: Q04DX003 (ip), vehicle: distilled water + Tween-80
  T/C: 145 % of control
dose: 25.0 mg/kg/injection, schedule: Q04DX003 (ip), vehicle: distilled water + Tween-80
  T/C: 138 % of control
dose: 50.0 mg/kg/injection, schedule: Q04DX003 (ip), vehicle: distilled water + Tween-80, evaluated on day 30
  T/C: 134 % of control
dose: 50.0 mg/kg/injection, schedule: Q04DX003 (ip), vehicle: distilled water + Tween-80, evaluated on day 45
  T/C: 128 % of control

## CN1CCCOC(c2ccccc2)c2ccsc2CC1 (stereo not drawn)
dose: 120.0 mg/kg/injection, schedule: Q01DX005 (ip), vehicle: saline with Tween-80
  survivor count: 2 of 6
dose: 240.0 mg/kg/injection, schedule: Q01DX005 (ip), vehicle: saline with Tween-80
  survivor count: 0 of 6

## O=[N+]([O-])c1ccc(Cl)c2c([N+](=O)[O-])cccc12
dose: 200.0 mg/kg/injection, schedule: Q01DX009 (ip), vehicle: saline with Tween-80
  survivor count: 4 of 6
dose: 400.0 mg/kg/injection, schedule: Q01DX009 (ip), vehicle: saline with Tween-80
  survivor count: 1 of 6

## Cc1cccc(C2N=C3Oc4ccccc4C=C3C(=O)N2)c1 (stereo not drawn)
[3]
  survivor count: 2 of 6

Source: PubChem BioAssay AID330 (DTP/NCI, 2004)
